Data taken from article PMC11952481.

Sequences of proteins named here, by UniProt entry; tags and fusion partners are left off.
UniProt P52480: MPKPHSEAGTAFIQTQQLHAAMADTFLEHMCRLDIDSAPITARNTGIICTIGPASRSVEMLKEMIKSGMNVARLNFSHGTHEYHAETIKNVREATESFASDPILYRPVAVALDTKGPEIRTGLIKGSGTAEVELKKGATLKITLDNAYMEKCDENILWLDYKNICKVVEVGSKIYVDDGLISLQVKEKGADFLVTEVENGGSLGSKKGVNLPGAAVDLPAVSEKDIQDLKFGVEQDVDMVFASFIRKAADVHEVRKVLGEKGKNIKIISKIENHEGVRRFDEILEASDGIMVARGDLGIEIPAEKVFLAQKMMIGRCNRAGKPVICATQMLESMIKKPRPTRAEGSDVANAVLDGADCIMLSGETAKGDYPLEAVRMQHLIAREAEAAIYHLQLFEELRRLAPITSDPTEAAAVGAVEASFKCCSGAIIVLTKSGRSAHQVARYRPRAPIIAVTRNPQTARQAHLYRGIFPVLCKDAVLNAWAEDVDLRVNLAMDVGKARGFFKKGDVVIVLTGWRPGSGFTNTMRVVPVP

Biological target: T1, SNO-CoA Reductase 2 (SCoR2; product of the Akr1a1 gene) (mouse (endogenous in mouse heart)) (UniProt Q9JII6)
T1 sequence: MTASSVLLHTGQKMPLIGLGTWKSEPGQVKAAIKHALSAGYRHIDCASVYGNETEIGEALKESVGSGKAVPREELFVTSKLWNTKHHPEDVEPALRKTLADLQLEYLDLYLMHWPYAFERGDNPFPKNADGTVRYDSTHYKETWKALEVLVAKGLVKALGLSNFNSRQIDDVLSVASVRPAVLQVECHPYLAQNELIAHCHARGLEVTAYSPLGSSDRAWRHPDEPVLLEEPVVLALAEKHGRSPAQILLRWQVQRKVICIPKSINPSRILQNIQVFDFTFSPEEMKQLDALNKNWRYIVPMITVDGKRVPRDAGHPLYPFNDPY
Assay: affinity purification with mass spectrometry; co-immunoprecipitation with 10 ug anti-SCoR2/Akr1a1 antibody (15054-1-AP, Proteintech) from untreated wild type mouse heart lysate in non-denaturing lysis buffer (20mM Tris-HCl pH 8.0, 137mM NaCl, 1% NP-40, 2mM EDTA), 2 hours at room temperature, protein A/G magnetic beads, elution with 0.1M glycine pH 2.0, LC-MS/MS

Question: “pyruvate kinase M2 (PKM2) (from UniProt P52480 1-531) (enzyme)” was tested. Which binding did it give?
Answer: The binding was “binds”.

B1: β-hydroxybutyrate dehydrogenase (BDH1) (enzyme, UniProt Q80XN0 47-343)
chain: ASQADAASGKAILITGCDSGFGFSLAKHLHSKGFLVFAGCLMKDKGDAGVKELDSLKSDRLRTIQLNVCNSEEVEKAVETIRSGLKDPEKGMWGLVNNAGISTFGEVEFTSMETYKEVAEVNLWGTVRTTKSFLPLLRRAKGRVVNISSMLGRMANPARSPYCITKFGIEAFSDCLRYEMHPLGVKVSVVEPGNFIAATSLYSPERIQAIAKKMWDDLPEVVRKDYGRKYFDEKIAKMETYCNSGSTDTSSVINAVTHALTAATPYTRYHPMDYYWWLRMQIMTHFPGAISDKIYIH
Question: With B1 as the molecule, how does the binding read?
Answer: The binding was “binds”.

Results are given in words; binding and its absence hold for the method and conditions named. Binding seen in cells or lysates may run through a third protein. These calls come from enrichment with a bait or labelling near it, and not all partners need be listed.
